Test results published in patent US7202329.
These are yes or no findings as the source states them, for the method shown. Some binding calls cover weakened binding; strength is not graded here.

Amino acid sequences for entries named in this document (tags omitted). Residues count along the entry.
UniProt Q99816, residues 240-390: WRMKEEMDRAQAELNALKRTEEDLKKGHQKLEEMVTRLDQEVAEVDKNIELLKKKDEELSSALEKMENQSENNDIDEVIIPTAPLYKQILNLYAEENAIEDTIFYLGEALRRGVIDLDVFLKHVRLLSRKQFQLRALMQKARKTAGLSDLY
UniProt P13647, residues 282-448: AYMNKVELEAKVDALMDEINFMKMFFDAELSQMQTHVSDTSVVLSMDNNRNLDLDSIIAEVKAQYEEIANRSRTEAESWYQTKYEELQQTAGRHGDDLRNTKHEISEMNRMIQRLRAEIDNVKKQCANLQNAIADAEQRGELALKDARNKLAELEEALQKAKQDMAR
keratin 8 (aa 147-406) (P05787, residues 147-406): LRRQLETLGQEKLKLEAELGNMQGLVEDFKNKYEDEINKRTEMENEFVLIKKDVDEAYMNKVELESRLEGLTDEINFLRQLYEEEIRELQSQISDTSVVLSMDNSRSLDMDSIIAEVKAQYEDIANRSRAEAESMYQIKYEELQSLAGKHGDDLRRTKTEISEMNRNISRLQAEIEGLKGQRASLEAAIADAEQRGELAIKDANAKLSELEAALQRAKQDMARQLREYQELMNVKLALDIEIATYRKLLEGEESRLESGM
keratin 8 (aa 293-394) (P05787, residues 293-394): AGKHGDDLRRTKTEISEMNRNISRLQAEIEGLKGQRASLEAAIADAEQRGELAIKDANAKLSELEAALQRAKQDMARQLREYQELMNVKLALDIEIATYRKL

Molecular target: Tsg101 (aa 240-391) (human) (UniProt Q99816)
Experiment: yeast two-hybrid

binding, binds:
keratin 5 (aa 282-448) (from UniProt P13647 282-448)
keratin 8 (aa 293-394) (from UniProt P05787 293-394)
keratin 8 (aa 147-406) (from UniProt P05787 147-406)
